Source: patent US10973863B2, “Method for regulating, preventing and/or treating pulmonary injury” (SINPHAR PHARMACEUTICAL CO., LTD., priority 2017, dated 2021)
At least one compound was matched to its structure with a doubt left.

Test system: MMP-9
Experiment: Gelatin zymography: LPS-activated active expression of MMP-9 in NR8383 cells
Assay type: cell-based, rat
Details: LPS 1 μg/mL, 24 hours
Source text: As indicated above, when an inflammatory response occurs in animal's pulmonary tissue, the active inflammatory cells will secret MMPs that will destroy the pulmonary tissue structure, cause more serious pulmonary injury, and lead to the decrement in or the loss of pulmonary functions. […]
Thereafter, the medium of each group was collected and respectively subjected to the following procedures. A 10% polyacrylamide gel containing 0.2% gelatin was used to carry out the sodium dodecyl sulfate polyacrylamide gel electrophoresis (SDS-PAGE). […] The image intensity (the image intensity was calculated based on the size of area and the shade of color) of highlight band (i.e., the gelatin in this area was degraded by MMPs, wherein the area locating around 95 kD molecular weight) on the gel of each group can reflect the active expression of MMP-9 of rat alveolar macrophage NR8383 cells under different conditions (the relative active expression of MMP-9 was calculated by serving the results of the blank group as 0% and serving that of the control group as 100%). […]
Thereafter, the medium of each group was collected and analyzed by the analyzing procedures same as that of (1-1).

In the case of `C[C@@H]1C[C@H]2[C@@H]3CCC4=CC(=O)C=C[C@]4(C)[C@@]3(F)[C@@H](O)C[C@]2(C)[C@@]1(O)C(=O)CO` [Dex, dexamethasone, reference compound], the “Effect on inhibiting the 1 μg/mL LPS-induced increment in active expression of MMP-9 (in words)” value (all tested concentrations) was “cannot inhibit”.
With `C=C(CC[C@@H](C(=O)O)[C@H]1[C@H](O)C[C@@]2(C)C3=C(CC[C@]12C)[C@@]1(C)CC[C@H](O)C(C)(C)[C@@H]1CC3)C(C)C` [TA, tumulosic acid] the “Relative active expression of MMP-9 (%)” value (Table 4, 12.5 μg/mL, listed as tumulosic acid) was “completely inhibit”.
